Data on one sequence can be found in US6514737.

Where a protein sequence is shown, tags need not be part of it.

For this data set, the system named is T1, AsiSI methylase (M.AsiSI) V1M (Arthrobacter sp. S).
T1 sequence (limits assumed): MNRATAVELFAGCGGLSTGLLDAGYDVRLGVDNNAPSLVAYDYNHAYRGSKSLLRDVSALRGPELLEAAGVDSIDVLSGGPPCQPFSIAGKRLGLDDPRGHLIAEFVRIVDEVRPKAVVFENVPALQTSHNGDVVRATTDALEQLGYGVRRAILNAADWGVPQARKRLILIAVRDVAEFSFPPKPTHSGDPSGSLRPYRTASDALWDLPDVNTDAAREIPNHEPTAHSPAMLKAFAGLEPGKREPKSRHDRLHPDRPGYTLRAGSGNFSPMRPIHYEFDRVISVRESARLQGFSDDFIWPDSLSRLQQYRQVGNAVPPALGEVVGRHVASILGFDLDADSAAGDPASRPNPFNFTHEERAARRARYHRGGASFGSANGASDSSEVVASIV
The data set can be described thus: activity in cells. As to conditions: pRRS(2AsiSI) co-transformed with pACYC-AsiSIM clones 1, 3, 4 became resistant to AsiSI digestion; protein in cells; only the site is given.

In the case of “GCGATCGC (double strand) [AsiSI sites in pRRS(2AsiSI) plasmid]”, the “activity on this sequence” value was “active”.
